Patent publication US10935544B2, “Glycan arrays and method of use” (OBI Pharma, Inc., priority 2015, dated 2021)

System: Human IgM
Test: Glycan array analysis (secondary test), relative anti-glycan Human IgM, lung cancer
Type: binding
Settings: categorized stages, FIG. 12D-12F

| Structure (SMILES) | detection of lung cancer stages by immobilized array |
| --- | --- |
| CCCCCCCCCCCCCCCCOCC(OCCCCCCCCCCCCCCCC)C(=O)NCCCCCO[C@H]1OC(CO)[C@@H](O[C@@H]2OC(CO)[C@H](O[C@H]3OC(CO)[C@H](O)C(O[C@@H]4OC(CO)[C@H](O)C(O[C@@H]5OC(CO)[C@H](O)C(O)C5O[C@@H]5OC(C)[C@@H](O)C(O)C5O)C4NC(C)=O)C3O)C(O)C2O)C(O)C1O (some centres unmarked) [Globo H-lipid 1] | could detect Stage I, Stage II and Stage III/IV lung cancers |
| CCCCCCCCCCCCCCCCOC[C@@H](OCCCCCCCCCCCCCCCC)C(=O)NCCCCCO[C@@H]1O[C@H](CO)[C@@H](O[C@@H]2O[C@H](CO)[C@H](O[C@H]3O[C@H](CO)[C@H](O)[C@H](O[C@@H]4O[C@H](CO)[C@H](O)[C@H](O[C@@H]5O[C@H](CO)[C@H](O)[C@H](O[C@]6(C(=O)O)C[C@H](O)[C@@H](NC(C)=O)[C@H]([C@H](O)[C@H](O)CO)O6)[C@H]5O)[C@H]4NC(C)=O)[C@H]3O)[C@H](O)[C@H]2O)[C@H](O)[C@H]1O [SSEA-4-lipid 1] | could detect Stage I, Stage II and Stage III/IV lung cancers |
